Results reported in article PMC11605229.

B1: ECSIT (protein, UniProt Q9BQ95 49-431)
chain: SSEQSLVPSPPEPRQRPTKALVPFEDLFGQAPGGERDKASFLQTVQKFAEHSVRKRGHIDFIYLALRKMREYGVERDLAVYNQLLNIFPKEVFRPRNIIQRIFVHYPRQQECGIAVLEQMENHGVMPNKETEFLLIQIFGRKSYPMLKLVRLKLWFPRFMNVNPFPVPRDLPQDPVELAMFGLRHMEPDLSARVTIYQVPLPKDSTGAADPPQPHIVGIQSPDQQAALARHNPARPVFVEGPFSLWLRNKCVYYHILRADLLPPEEREVEETPEEWNLYYPMQLDLEYVRSGWDNYEFDINEVEEGPVFAMCMAGAHDQATMAKWIQGLQETNPTLAQIPVVFRLAGSTRELQTSSAGLEEPPLPEDHQEEDDNLQRQQQGQS
B2: ZC3H14 (protein, UniProt Q6PJT7 1-736)
chain: MEIGTEISRKIRSAIKGKLQELGAYVDEELPDYIMVMVANKKSQDQMTEDLSLFLGNNTIRFTVWLHGVLDKLRSVTTEPSSLKSSDTNIFDSNVPSNKSNFSRGDERRHEAAVPPLAIPSARPEKRDSRVSTSSQESKTTNVRQTYDDGAATRLMSTVKPLREPAPSEDVIDIKPEPDDLIDEDLNFVQENPLSQKKPTVTLTYGSSRPSIEIYRPPASRNADSGVHLNRLQFQQQQNSIHAAKQLDMQSSWVYETGRLCEPEVLNSLEETYSPFFRNNSEKMSMEDENFRKRKLPVVSSVVKVKKFNHDGEEEEEDDDYGSRTGSISSSVSVPAKPERRPSLPPSKQANKNLILKAISEAQESVTKTTNYSTVPQKQTLPVAPRTRTSQEELLAEVVQGQSRTPRISPPIKEEETKGDSVEKNQGTQQRQLLSRLQIDPVMAETLQMSQDYYDMESMVHADTRSFILKKPKLSEEVVVAPNQESGMKTADSLRVLSGHLMQTRDLVQPDKPASPKFIVTLDGVPSPPGYMSDQEEDMCFEGMKPVNQTAASNKGLRGLLHPQQLHLLSRQLEDPNGSFSNAEMSELSVAQKPEKLLERCKYWPACKNGDECAYHHPISPCKAFPNCKFAEKCLFVHPNCKYDAKCTKPDCPFTHVSRRIPVLSPKPAVAPPAPPSSSQLCRYFPACKKMECPFYHPKHCRFNTQCTRPDCTFYHPTINVPPRHALKWIRPQTSE
B3: NFKB2 (protein, UniProt Q00653 1-900)
chain: MESCYNPGLDGIIEYDDFKLNSSIVEPKEPAPETADGPYLVIVEQPKQRGFRFRYGCEGPSHGGLPGASSEKGRKTYPTVKICNYEGPAKIEVDLVTHSDPPRAHAHSLVGKQCSELGICAVSVGPKDMTAQFNNLGVLHVTKKNMMGTMIQKLQRQRLRSRPQGLTEAEQRELEQEAKELKKVMDLSIVRLRFSAFLRASDGSFSLPLKPVISQPIHDSKSPGASNLKISRMDKTAGSVRGGDEVYLLCDKVQKDDIEVRFYEDDENGWQAFGDFSPTDVHKQYAIVFRTPPYHKMKIERPVTVFLQLKRKRGGDVSDSKQFTYYPLVEDKEEVQRKRRKALPTFSQPFGGGSHMGGGSGGAAGGYGGAGGGGSLGFFPSSLAYSPYQSGAGPMGCYPGGGGGAQMAATVPSRDSGEEAAEPSAPSRTPQCEPQAPEMLQRAREYNARLFGLAQRSARALLDYGVTADARALLAGQRHLLTAQDENGDTPLHLAIIHGQTSVIEQIVYVIHHAQDLGVVNLTNHLHQTPLHLAVITGQTSVVSFLLRVGADPALLDRHGDSAMHLALRAGAGAPELLRALLQSGAPAVPQLLHMPDFEGLYPVHLAVRARSPECLDLLVDSGAEVEATERQGGRTALHLATEMEELGLVTHLVTKLRANVNARTFAGNTPLHLAAGLGYPTLTRLLLKAGADIHAENEEPLCPLPSPPTSDSDSDSEGPEKDTRSSFRGHTPLDLTCSTKVKTLLLNAAQNTMEPPLTPPSPAGPGLSLGDTALQNLEQLLDGPEAQGSWAELAERLGLRSLVDTYRQTTSPSGSLLRSYELAGGDLAGLLEALSDMGLEEGVRLLRGPETRDKLPSTAEVKEDSAYGSQSVEQEAEKLGPPPEPPGGLCHGHPQPQVH
B4: PARN (protein, UniProt O95453 1-639)
chain: MEIIRSNFKSNLHKVYQAIEEADFFAIDGEFSGISDGPSVSALTNGFDTPEERYQKLKKHSMDFLLFQFGLCTFKYDYTDSKYITKSFNFYVFPKPFNRSSPDVKFVCQSSSIDFLASQGFDFNKVFRNGIPYLNQEEERQLREQYDEKRSQANGAGALSYVSPNTSKCPVTIPEDQKKFIDQVVEKIEDLLQSEENKNLDLEPCTGFQRKLIYQTLSWKYPKGIHVETLETEKKERYIVISKVDEEERKRREQQKHAKEQEELNDAVGFSRVIHAIANSGKLVIGHNMLLDVMHTVHQFYCPLPADLSEFKEMTTCVFPRLLDTKLMASTQPFKDIINNTSLAELEKRLKETPFNPPKVESAEGFPSYDTASEQLHEAGYDAYITGLCFISMANYLGSFLSPPKIHVSARSKLIEPFFNKLFLMRVMDIPYLNLEGPDLQPKRDHVLHVTFPKEWKTSDLYQLFSAFGNIQISWIDDTSAFVSLSQPEQVKIAVNTSKYAESYRIQTYAEYMGRKQEEKQIKRKWTEDSWKEADSKRLNPQCIPYTLQNHYYRNNSFTAPSTVGKRNLSPSQEEAGLEDGVSGEISDTELEQTDSCAEPLSEGRKKAKKLKRMKKELSPAGSISKNSPATLFEVPDTW
B5: TSC1 (protein, UniProt Q92574 1-1164)
chain: MAQQANVGELLAMLDSPMLGVRDDVTAVFKENLNSDRGPMLVNTLVDYYLETSSQPALHILTTLQEPHDKHLLDRINEYVGKAATRLSILSLLGHVIRLQPSWKHKLSQAPLLPSLLKCLKMDTDVVVLTTGVLVLITMLPMIPQSGKQHLLDFFDIFGRLSSWCLKKPGHVAEVYLVHLHASVYALFHRLYGMYPCNFVSFLRSHYSMKENLETFEEVVKPMMEHVRIHPELVTGSKDHELDPRRWKRLETHDVVIECAKISLDPTEASYEDGYSVSHQISARFPHRSADVTTSPYADTQNSYGCATSTPYSTSRLMLLNMPGQLPQTLSSPSTRLITEPPQATLWSPSMVCGMTTPPTSPGNVPPDLSHPYSKVFGTTAGGKGTPLGTPATSPPPAPLCHSDDYVHISLPQATVTPPRKEERMDSARPCLHRQHHLLNDRGSEEPPGSKGSVTLSDLPGFLGDLASEEDSIEKDKEEAAISRELSEITTAEAEPVVPRGGFDSPFYRDSLPGSQRKTHSAASSSQGASVNPEPLHSSLDKLGPDTPKQAFTPIDLPCGSADESPAGDRECQTSLETSIFTPSPCKIPPPTRVGFGSGQPPPYDHLFEVALPKTAHHFVIRKTEELLKKAKGNTEEDGVPSTSPMEVLDRLIQQGADAHSKELNKLPLPSKSVDWTHFGGSPPSDEIRTLRDQLLLLHNQLLYERFKRQQHALRNRRLLRKVIKAAALEEHNAAMKDQLKLQEKDIQMWKVSLQKEQARYNQLQEQRDTMVTKLHSQIRQLQHDREEFYNQSQELQTKLEDCRNMIAELRIELKKANNKVCHTELLLSQVSQKLSNSESVQQQMEFLNRQLLVLGEVNELYLEQLQNKHSDTTKEVEMMKAAYRKELEKNRSHVLQQTQRLDTSQKRILELESHLAKKDHLLLEQKKYLEDVKLQARGQLQAAESRYEAQKRITQVFELEILDLYGRLEKDGLLKKLEEEKAEAAEAAEERLDCCNDGCSDSMVGHNEEASGHNGETKTPRPSSARGSSGSRGGGGSSSSSSELSTPEKPPHQRAGPFSSRWETTMGEASASIPTTVGSLPSSKSFLGMKARELFRNKSESQCDEDGMTSSLSESLKTELGKDLGVEAKIPLNLDGPHPSPPTPDSVGQLHIMDYNETHHEHS
B6: KHSRP (protein, UniProt Q92945 1-711)
chain: MSDYSTGGPPPGPPPPAGGGGGAGGAGGGPPPGPPGAGDRGGGGPGGGGPGGGSAGGPSQPPGGGGPGIRKDAFADAVQRARQIAAKIGGDAATTVNNSTPDFGFGGQKRQLEDGDQPESKKLASQGDSISSQLGPIHPPPRTSMTEEYRVPDGMVGLIIGRGGEQINKIQQDSGCKVQISPDSGGLPERSVSLTGAPESVQKAKMMLDDIVSRGRGGPPGQFHDNANGGQNGTVQEIMIPAGKAGLVIGKGGETIKQLQERAGVKMILIQDGSQNTNVDKPLRIIGDPYKVQQACEMVMDILRERDQGGFGDRNEYGSRIGGGIDVPVPRHSVGVVIGRSGEMIKKIQNDAGVRIQFKQDDGTGPEKIAHIMGPPDRCEHAARIINDLLQSLRSGPPGPPGGPGMPPGGRGRGRGQGNWGPPGGEMTFSIPTHKCGLVIGRGGENVKAINQQTGAFVEISRQLPPNGDPNFKLFIIRGSPQQIDHAKQLIEEKIEGPLCPVGPGPGGPGPAGPMGPFNPGPFNQGPPGAPPHAGGPPPHQYPPQGWGNTYPQWQPPAPHDPSKAAAAAADPNAAWAAYYSHYYQQPPGPVPGPAPAPAAPPAQGEPPQPPPTGQSDYTKAWEEYYKKIGQQPQQPGAPPQQDYTKAWEEYYKKQAQVATGGGPGAPPGSQPDYSAAWAEYYRQQAAYYGQTPGPGGPQPPPTQQGQQQAQ
B7: RND3 (protein, UniProt P61587 1-244)
chain: MKERRASQKLSSKSIMDPNQNVKCKIVVVGDSQCGKTALLHVFAKDCFPENYVPTVFENYTASFEIDTQRIELSLWDTSGSPYYDNVRPLSYPDSDAVLICFDISRPETLDSVLKKWKGEIQEFCPNTKMLLVGCKSDLRTDVSTLVELSNHRQTPVSYDQGANMAKQIGAATYIECSALQSENSVRDIFHVATLACVNKTNKNVKRNKSQRATKRISHMPSRPELSAVATDLRKDKAKSCTVM
B8: RBM34 (protein, UniProt P42696 1-430)
chain: MALEGMSKRKRKRSVQEGENPDDGVRGSPPEDYRLGQVASSLFRGEHHSRGGTGRLASLFSSLEPQIQPVYVPVPKQTIKKTKRNEEEESTSQIERPLSQEPAKKVKAKKKHTNAEKKLADRESALASADLEEEIHQKQGQKRKNSQPGVKVADRKILDDTEDTVVSQRKKIQINQEEERLKNERTVFVGNLPVTCNKKKLKSFFKEYGQIESVRFRSLIPAEGTLSKKLAAIKRKIHPDQKNINAYVVFKEESAATQALKRNGAQIADGFRIRVDLASETSSRDKRSVFVGNLPYKVEESAIEKHFLDCGSIMAVRIVRDKMTGIGKGFGYVLFENTDSVHLALKLNNSELMGRKLRVMRSVNKEKFKQQNSNPRLKNVSKPKQGLNFTSKTAEGHPKSLFIGEKAVLLKTKKKGQKKSGRPKKQRKQK
B9: EBNA1BP2 (protein, UniProt Q99848 1-306)
chain: MDTPPLSDSESESDESLVTDRELQDAFSRGLLKPGLNVVLEGPKKAVNDVNGLKQCLAEFKRDLEWVERLDVTLGPVPEIGGSEAPAPQNKDQKAVDPEDDFQREMSFYRQAQAAVLAVLPRLHQLKVPTKRPTDYFAEMAKSDLQMQKIRQKLQTKQAAMERSEKAKQLRALRKYGKKVQTEVLQKRQQEKAHMMNAIKKYQKGFSDKLDFLEGDQKPLAQRKKAGAKGQQMRKGPSAKRRYKNQKFGFGGKKKGSKWNTRESYDDVSSFRAKTAHGRGLKRPGKKGSNKRPGKRTREKMKNRTH

These binders were tested against BioID-BAG3 (UniProt O95817) (assay: proximity labelling; BioID in human AC16 cardiomyocyte cells: transfected with plasmid expressing BioID-BAG3 for 48 h, biotin for 16 h; LC-MS/MS; BAG3_Biotin vs. BioID vector only, adjusted p < 0.05; effect sizes corrected for biotin alone and for BAG3 over-expression; three replicates).

Row | Binder | binding
1 | B1 | binds
2 | B2 | binds
3 | B3 | binds
4 | B4 | binds
5 | B5 | binds
6 | B6 | binds
7 | B7 | binds
8 | B8 | binds
9 | B9 | binds

Results are given in words; binding and its absence hold for the method and conditions named. Binding seen in cells or lysates may run through a third protein. These calls come from enrichment with a bait or labelling near it, and not all partners need be listed.
